Assay results as given in PMC4912613, “A broad analysis of resistance development in the malaria parasite” (Nature Communications, 2016).

Legend:
Assay type in all cases: cell-based, Plasmodium falciparum
[1] = tested on: ATQ-R4 (cytb M133I and L144S, parent 3D7); assay: Cross-resistance EC50 assay, ATQ-R4; settings: SYBR green 72 hour assay, asynchronized parasites, 96-well or 1536-well format
Summary of the method: (§1)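 EC50 fold shifts were derived from blood-stage growth assays run in parallel on mutant and parent strains within one laboratory. Growth was measured either by tritiated hypoxanthine uptake (48 h) or SYBR Green I staining (72 h).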

[2] = tested on: NITD609-R2 (PfATP4 T418N and P990R, parent Dd2); assay: Cross-resistance EC50 assay, NITD609-R2; settings: SYBR green 72 hour assay, asynchronized parasites, 96-well or 1536-well format
Summary of the method: as §1

[3] = tested on: PfATP4-Mut2 (PfATP4 P412L, parent W2); assay: Cross-resistance EC50 assay, PfATP4-Mut2; settings: hypoxanthine 48-hour assay; synchronized parasites; 96-well format; strain PfATP4 Mut2
Summary of the method: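 Parasitized RBCs exposed to serial drug dilutions; growth read by ³H-hypoxanthine uptake over 48 h or SYBR Green I over 72 h at 37 °C. EC50s from triplicate runs; resistance judged as fold shift against the parent strain assayed the same way.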

[4] = tested on: ProRS (prolyl t-RNA synthetase L482H, parent Dd2); assay: Cross-resistance EC50 assay, ProRS; settings: SYBR green 72 hour assay; synchronized parasites; 384-well format; strain ProRS (Dd2 parent)
Summary of the method: as §1

Structure (SMILES)	ATQ-R4 (3D7 Parent) Average Hill Slope [1]	NITD609-R2 (Dd2 Parent) Average Hill Slope [2]	PfATP4 Mut2 (W2F6 Parent) Average Hill Slope [3]	ProRS (Dd2 Parent) Average Hill Slope [4]
CCCOCc1cc(CN2CCN(c3cccc(Cl)c3)CC2)c(O)c2ncccc12 [MMV000787]	1.95	1.29	1.63	3.95
Cc1cc(Nc2ccc(OCc3ccccc3)cc2)nc2cc(O)ccc12 [MMV007181]	1.87	1.57	1.82	1.77
COc1cc(C(=O)ON=C(N)Cc2cccc3ccccc23)cc(OC)c1OC [MMV666687]	2.08	2.03	1.42	18.0
Cc1ccc(Cn2c(N3CCC(C(=O)NCc4cccs4)CC3)nc3ccccc32)cc1 [MMV007564]	1.61	0.93	1.26	1.52
COc1cc2cc(C(=O)Nc3ccccc3)c(N)nc2cc1OC [MMV006767]	3.43	0.97	0.70	3.25
CC(C)(C)OC(=O)N1CCN(c2ccccc2NC(=O)c2cccc(C(F)(F)F)c2Oc2ccc(F)cc2)CC1 [MMV030666]	1.38	1.44	1.54	2.88
Cc1ccc(S(=O)(=O)n2cc(-c3ccnc(N)c3)c3cc(Br)cnc32)cc1 [MMV024114]	2.94	2.23	1.07	3.28
COCCNCC(O)Cn1c2ccc(Cl)cc2c2cc(Cl)ccc21 (stereo not drawn) [MMV019017]	1.25	0.70	0.90	1.28
COc1ccccc1CNC(=O)CCn1c(=O)[nH]c2ccsc2c1=O [MMV019066]	0.55	0.59	0.82	1.19
CN(C)CCCN(C)C(=O)C1Cc2cc(-c3ccccc3)ccc2N1S(=O)(=O)c1ccccc1 (stereo not drawn) [MMV028895]	1.19	1.30	2.33	2.83
COc1cc(-c2nc(-c3ccccc3)c(-c3ccccc3)[nH]2)ccc1OCCN(C)C [MMV027496]	3.31	1.10	1.41	25.6
Nc1ccc(-c2nc3cc(Oc4ccc(Oc5ccc6[nH]c(-c7ccc(N)cc7)nc6c5)cc4)ccc3[nH]2)cc1 [MMV011895]	2.50	1.91	1.52	2.39
